# Source: PMC8480281
# By UniProt entry, the sequences of proteins in these tests, tags left out.
# UniProt Q12948: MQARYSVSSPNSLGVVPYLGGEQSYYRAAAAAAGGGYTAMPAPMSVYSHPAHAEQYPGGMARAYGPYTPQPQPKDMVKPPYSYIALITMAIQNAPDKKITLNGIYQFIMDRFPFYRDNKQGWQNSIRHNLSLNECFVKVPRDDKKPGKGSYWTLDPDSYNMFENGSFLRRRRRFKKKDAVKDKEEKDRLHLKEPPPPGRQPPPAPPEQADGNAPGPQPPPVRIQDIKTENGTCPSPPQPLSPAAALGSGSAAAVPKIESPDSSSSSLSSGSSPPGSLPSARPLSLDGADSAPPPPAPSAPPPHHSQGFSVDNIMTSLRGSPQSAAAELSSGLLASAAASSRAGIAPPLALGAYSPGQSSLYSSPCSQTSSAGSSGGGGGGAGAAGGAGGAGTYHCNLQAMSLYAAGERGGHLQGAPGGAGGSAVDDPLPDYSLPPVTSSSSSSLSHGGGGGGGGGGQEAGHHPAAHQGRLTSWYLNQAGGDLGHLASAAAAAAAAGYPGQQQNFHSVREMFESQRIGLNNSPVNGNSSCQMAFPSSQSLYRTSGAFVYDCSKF
# UniProt Q13951: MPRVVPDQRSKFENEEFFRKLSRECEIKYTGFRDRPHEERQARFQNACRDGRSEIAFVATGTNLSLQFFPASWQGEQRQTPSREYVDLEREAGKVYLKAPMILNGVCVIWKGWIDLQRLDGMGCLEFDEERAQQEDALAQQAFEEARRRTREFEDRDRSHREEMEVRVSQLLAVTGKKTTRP
# UniProt Q13547: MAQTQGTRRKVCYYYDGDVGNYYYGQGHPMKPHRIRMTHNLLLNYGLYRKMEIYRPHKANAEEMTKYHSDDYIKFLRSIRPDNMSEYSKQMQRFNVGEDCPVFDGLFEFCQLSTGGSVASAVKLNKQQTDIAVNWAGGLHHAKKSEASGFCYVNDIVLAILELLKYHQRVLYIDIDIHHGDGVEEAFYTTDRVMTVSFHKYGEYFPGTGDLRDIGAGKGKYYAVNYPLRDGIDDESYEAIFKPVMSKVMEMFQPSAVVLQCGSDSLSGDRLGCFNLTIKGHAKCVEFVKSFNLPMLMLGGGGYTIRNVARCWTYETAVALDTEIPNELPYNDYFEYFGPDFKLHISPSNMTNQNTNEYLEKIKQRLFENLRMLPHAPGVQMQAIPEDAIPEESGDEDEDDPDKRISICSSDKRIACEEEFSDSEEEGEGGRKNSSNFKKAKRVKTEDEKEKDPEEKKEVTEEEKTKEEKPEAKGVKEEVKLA
# UniProt Q04726: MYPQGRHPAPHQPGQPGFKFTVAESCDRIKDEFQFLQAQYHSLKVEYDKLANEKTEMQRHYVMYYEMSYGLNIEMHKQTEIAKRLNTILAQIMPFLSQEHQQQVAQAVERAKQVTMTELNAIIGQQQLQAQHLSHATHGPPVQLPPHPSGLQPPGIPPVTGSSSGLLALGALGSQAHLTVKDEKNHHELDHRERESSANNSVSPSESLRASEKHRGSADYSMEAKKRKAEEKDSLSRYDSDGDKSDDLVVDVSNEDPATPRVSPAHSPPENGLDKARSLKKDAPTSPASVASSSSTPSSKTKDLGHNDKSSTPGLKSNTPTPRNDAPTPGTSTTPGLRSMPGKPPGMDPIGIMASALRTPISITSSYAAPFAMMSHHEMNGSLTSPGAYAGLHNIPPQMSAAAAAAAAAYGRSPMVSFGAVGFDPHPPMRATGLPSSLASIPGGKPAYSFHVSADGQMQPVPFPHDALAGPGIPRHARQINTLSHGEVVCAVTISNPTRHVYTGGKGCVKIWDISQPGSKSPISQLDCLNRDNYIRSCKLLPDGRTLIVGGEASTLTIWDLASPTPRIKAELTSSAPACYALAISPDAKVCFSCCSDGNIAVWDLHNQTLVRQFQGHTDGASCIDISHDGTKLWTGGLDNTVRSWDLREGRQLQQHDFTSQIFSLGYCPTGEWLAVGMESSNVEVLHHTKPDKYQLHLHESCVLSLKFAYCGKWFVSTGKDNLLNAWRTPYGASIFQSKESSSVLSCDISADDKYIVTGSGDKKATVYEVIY
# UniProt Q92769: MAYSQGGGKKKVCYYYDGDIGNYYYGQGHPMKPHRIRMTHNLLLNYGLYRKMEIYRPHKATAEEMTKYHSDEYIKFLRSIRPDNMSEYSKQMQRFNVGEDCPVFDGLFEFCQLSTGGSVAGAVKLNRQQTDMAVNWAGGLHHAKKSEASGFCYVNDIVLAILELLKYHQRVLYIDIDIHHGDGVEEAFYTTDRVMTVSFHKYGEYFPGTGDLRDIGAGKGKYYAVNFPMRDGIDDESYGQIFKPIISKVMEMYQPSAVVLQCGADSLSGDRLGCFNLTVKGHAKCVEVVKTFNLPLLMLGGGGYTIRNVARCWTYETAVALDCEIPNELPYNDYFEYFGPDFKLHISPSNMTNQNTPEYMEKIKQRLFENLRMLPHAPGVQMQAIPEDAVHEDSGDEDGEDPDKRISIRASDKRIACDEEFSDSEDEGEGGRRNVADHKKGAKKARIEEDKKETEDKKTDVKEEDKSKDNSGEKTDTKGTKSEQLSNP
# UniProt Q8TAQ2: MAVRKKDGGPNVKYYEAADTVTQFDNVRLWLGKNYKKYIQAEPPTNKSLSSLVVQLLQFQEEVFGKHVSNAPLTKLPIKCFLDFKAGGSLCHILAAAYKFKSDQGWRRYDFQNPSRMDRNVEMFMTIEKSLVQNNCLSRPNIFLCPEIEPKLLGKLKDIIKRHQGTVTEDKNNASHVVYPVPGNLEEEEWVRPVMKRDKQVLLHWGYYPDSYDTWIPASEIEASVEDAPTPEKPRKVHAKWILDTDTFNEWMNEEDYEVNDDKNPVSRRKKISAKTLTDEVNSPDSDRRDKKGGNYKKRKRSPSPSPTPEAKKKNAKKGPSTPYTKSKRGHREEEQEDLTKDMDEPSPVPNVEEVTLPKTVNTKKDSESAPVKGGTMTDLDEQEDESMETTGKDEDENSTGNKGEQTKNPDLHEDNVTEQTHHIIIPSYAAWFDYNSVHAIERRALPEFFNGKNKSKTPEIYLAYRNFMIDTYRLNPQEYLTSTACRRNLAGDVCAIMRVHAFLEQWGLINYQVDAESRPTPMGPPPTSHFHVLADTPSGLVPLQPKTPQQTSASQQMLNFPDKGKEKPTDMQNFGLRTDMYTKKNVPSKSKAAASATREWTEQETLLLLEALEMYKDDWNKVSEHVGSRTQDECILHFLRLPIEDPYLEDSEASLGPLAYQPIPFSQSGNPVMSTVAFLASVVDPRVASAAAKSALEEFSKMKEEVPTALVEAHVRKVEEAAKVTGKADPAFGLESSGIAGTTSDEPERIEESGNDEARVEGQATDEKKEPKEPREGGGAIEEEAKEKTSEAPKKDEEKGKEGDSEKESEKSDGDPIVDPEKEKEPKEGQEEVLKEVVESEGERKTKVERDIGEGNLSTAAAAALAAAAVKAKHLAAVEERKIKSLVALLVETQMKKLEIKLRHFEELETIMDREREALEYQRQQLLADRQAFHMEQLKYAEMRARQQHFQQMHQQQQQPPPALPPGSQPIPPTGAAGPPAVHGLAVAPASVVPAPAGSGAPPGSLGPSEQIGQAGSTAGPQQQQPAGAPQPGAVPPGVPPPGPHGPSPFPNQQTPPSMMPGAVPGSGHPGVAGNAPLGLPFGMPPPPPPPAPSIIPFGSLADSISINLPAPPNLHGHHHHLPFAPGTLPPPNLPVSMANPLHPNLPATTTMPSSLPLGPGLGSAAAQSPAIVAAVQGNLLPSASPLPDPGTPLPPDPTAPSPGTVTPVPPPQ
# UniProt P49715: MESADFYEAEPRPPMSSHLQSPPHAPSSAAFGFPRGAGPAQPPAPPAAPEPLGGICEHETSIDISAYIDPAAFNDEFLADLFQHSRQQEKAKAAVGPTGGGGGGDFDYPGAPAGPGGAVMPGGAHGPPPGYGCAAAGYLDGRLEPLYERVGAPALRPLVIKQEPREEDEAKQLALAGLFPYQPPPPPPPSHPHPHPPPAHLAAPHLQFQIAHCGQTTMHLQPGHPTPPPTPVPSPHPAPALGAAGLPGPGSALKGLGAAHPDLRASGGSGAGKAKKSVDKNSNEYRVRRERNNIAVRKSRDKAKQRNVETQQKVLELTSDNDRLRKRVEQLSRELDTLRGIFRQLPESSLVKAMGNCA
# UniProt Q09472: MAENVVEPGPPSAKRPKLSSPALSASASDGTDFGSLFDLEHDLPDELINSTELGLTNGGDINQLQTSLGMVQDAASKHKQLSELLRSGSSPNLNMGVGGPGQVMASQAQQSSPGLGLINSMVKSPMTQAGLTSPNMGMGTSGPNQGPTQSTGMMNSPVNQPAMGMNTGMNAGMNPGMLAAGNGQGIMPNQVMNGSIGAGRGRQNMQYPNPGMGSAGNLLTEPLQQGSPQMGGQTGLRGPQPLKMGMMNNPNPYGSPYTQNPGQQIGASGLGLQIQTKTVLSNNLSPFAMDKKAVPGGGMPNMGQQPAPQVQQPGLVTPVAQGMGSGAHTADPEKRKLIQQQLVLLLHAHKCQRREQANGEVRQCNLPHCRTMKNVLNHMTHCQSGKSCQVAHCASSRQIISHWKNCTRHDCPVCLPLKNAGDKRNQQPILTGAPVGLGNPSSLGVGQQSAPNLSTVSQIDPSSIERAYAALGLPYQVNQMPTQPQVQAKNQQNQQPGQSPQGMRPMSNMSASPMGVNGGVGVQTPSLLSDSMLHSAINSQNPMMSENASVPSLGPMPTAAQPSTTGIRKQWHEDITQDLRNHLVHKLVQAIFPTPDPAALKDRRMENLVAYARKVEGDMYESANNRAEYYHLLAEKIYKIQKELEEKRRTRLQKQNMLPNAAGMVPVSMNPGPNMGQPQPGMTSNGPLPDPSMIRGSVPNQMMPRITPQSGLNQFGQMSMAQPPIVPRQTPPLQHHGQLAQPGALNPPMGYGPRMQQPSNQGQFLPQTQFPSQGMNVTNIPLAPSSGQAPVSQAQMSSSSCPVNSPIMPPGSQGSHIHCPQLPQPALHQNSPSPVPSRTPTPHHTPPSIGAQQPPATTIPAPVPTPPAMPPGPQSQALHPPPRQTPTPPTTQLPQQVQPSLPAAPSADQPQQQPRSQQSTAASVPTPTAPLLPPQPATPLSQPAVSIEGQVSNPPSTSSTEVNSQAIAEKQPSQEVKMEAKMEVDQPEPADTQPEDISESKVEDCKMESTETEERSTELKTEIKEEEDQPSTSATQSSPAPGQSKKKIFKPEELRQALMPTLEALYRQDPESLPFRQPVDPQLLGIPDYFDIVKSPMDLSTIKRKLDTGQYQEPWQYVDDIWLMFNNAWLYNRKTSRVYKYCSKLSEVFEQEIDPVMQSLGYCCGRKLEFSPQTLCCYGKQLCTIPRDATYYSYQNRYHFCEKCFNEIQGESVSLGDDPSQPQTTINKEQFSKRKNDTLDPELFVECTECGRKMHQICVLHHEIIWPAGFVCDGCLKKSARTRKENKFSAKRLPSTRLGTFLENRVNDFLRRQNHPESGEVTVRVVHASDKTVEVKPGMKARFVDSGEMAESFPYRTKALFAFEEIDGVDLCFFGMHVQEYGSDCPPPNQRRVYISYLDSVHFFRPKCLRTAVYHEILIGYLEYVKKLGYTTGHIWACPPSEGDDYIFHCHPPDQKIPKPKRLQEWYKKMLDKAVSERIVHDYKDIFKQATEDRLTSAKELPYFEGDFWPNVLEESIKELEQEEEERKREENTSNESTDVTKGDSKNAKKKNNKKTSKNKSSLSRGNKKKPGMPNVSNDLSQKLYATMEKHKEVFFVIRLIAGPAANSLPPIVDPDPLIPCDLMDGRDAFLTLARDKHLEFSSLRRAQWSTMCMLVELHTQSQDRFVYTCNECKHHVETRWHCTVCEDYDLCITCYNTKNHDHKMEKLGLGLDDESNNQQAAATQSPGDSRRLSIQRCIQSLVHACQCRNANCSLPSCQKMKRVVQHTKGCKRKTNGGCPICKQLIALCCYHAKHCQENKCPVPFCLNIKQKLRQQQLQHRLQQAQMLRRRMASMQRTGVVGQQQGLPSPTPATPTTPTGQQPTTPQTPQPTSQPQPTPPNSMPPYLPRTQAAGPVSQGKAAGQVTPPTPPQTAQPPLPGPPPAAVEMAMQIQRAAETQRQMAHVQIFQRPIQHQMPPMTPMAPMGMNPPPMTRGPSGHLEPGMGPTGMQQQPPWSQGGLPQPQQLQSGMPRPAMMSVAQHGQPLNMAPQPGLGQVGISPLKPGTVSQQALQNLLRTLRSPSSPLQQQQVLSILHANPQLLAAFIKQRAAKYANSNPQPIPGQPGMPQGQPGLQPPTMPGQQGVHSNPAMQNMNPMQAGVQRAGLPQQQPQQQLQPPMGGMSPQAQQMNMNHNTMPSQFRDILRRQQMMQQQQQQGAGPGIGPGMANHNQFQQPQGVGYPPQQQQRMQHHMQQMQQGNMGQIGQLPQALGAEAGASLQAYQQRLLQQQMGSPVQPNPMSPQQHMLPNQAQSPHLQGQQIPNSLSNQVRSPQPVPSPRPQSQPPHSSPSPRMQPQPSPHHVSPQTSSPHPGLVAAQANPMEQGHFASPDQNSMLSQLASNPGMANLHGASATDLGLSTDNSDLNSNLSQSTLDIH
# Results are given in words; binding and its absence hold for the method and conditions named. In cells and extracts the contact can be indirect. Here binding means that the protein was enriched with, or labelled near, the bait; the list need not be complete.
# Biological target: FOXC1 (Forkhead box C1), endogenous (human (endogenous in Fujioka and primary AML cells)) (UniProt Q12948)
# Experiment: affinity purification with mass spectrometry; RIME: cells cross-linked with 2 mM DSG then 1% formaldehyde, nuclear fraction sonicated, anti-FOXC1 polyclonal antibody on Protein G Dynabeads overnight at 4°C, washed in RIPA buffer; two analyses in Fujioka cells and one in BB475 primary AML blast …
row,Substance,binding
1,"CBFB, endogenous (from UniProt Q13951 1-182)",binds
2,"histone deacetylase HDAC1, endogenous (from UniProt Q13547 1-482)",binds
3,"Groucho co-repressor family member TLE3, endogenous (from UniProt Q04726 1-772)",binds
4,"HDAC2, endogenous (from UniProt Q92769 1-488)",binds
5,"SWI/SNF chromatin remodeling complex protein SMARCC2, endogenous (from UniProt Q8TAQ2 1-1214)",binds
6,"CEBPA, endogenous (from UniProt P49715 1-358)",binds
7,"histone acetyltransferase EP300, endogenous (from UniProt Q09472 1-2414)",binds
